Hit rate of the full screen: of about 31,000 sequences, about 1,400 (4.5%) were called active.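 The calls were made as follows: active = median seed-adjusted z-score above 1 or below -1; inactive = the rest.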 The list shows a part of the results.
Assay: Novel Modifiers of Survival Motor Neuron (SMN) Protein: Gene Identification via Genome-wide siRNA Screen;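 also: luminescence tracks full-length SMN protein made from the SMN2 reporter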
Details: HEK293T SMN2-luciferase reporter, siRNA knockdown, 72 h; actives lie on both sides
In short: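 siRNA screen, 10418 genes ×3 siRNAs; 1 pmol/well, lipid reverse transfection into HEK293T SMN2-luc reporter line. 72 h, 37 °C, 5% CO2; ONE-Glo readout. Data: neg-ctrl normalized, log10, MAD; hit = MAD >1.0 or < -1.0.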

Row | Sequence | median seed-adjusted z-score
1 | CUGCAAUUCUGUAUACCUATT against FLJ12529 | inactive: 0.852
2 | CAGCAUUCAUUGAUCAAUUTT against ZBTB6 | inactive: -0.225
3 | GAAUAGAACUUCGUUCUUUTT against IPP | inactive: 0.298
4 | GCAGGUAACUCAUCCACGUTT against RHBDL3 | inactive: 0.56
5 | GGCGGAUGCUGUUACGGAUTT against IL8RB | inactive: -0.387
6 | GGCUCAACAUGAAGCAGAATT against RECQL4 | inactive: 0.475
7 | CGCUUAACAUUGGAGUUCATT against ATG7 | inactive: -0.328
8 | CGGCAAGGUGGAUUACAAATT against MYH9 | inactive: -0.517
9 | AGUUCAACUUCGAAGUACATT against TFAP2B | inactive: 0
10 | GCGGUGAUCUUGCUGUAUUTT against ANAPC2 | inactive: -0.116
11 | GGCUCGUAUUUUCUGGUUUTT against ACHE | inactive: 0
12 | CCGGCAUCUUUGCUACCUATT against AQP3 | inactive: -0.0863
13 | GUAUCGUCCUGAAUAUGAATT against GPN1 | inactive: -0.14
14 | GUUGCACUGUCGGUCCUGATT against GRINA | inactive: 0.175
15 | GGAAGAGGCAUGCACCCAATT against GUCY2E | inactive: 0.61
16 | GUCUUUGUCUAGAUACAAUTT against BTBD1 | inactive: 0.0192
17 | AGGGCGAUAUGAUGCAGAATT against OLIG3 | inactive: -0.598
18 | CUAUGUGAUUGAUCAAGGATT against PRKAR1A | inactive: 0.428
19 | CGAUUACAUUGACAACCAUTT against KCNQ4 | inactive: 0.583
20 | GCGGUACUCAGAAACAGAATT against HEXB | inactive: 0.0101
21 | CACUCUAGAGAAACCCUAUTT against ZNF44 | inactive: 0.349
22 | GCAGUAUGAUAAAGCCUGUTT against ZXDC | inactive: -0.0213

Retrieved one by one from the list above:
Row | Sequence | median seed-adjusted z-score
12 | CCGGCAUCUUUGCUACCUATT against AQP3 | inactive: -0.0863
14 | GUUGCACUGUCGGUCCUGATT against GRINA | inactive: 0.175
17 | AGGGCGAUAUGAUGCAGAATT against OLIG3 | inactive: -0.598

Following part

Row | Sequence | median seed-adjusted z-score
23 | GGCUGUUUCUGUUGCGGAATT against BFSP1 | inactive: 0.057
24 | GCUUCGAAGGGAAAACCAATT against GPR17 | inactive: -0.309
25 | GCAUCGUUUUCAGUGCCGATT against GRM5 | inactive: -0.227
26 | CAGAAAUGCUAGCCCUUCATT against GPR68 | inactive: -0.0233
27 | GACCGGCCGUUCAGAAUGATT against RPUSD1 | inactive: 0.327
28 | CAGCGUAACGUGAACAUAUTT against LDHA | inactive: 0.401
29 | GCCGUCCACUUGAAGAUCATT against BNC1 | inactive: -0.631
30 | GAACUACACUGCGAGCUUUTT against RND2 | inactive: -0.0613
31 | GCUCUUAUCUUUUGUCCAATT against SNRNP40 | inactive: 0.677
32 | GUGCAUCAACUAUACCGAUTT against SCN10A | inactive: -0.401
33 | GCCCAGAAGGGUUACGAAATT against GNPTAB | inactive: 0.296
34 | ACCCAGAUCUCUACCUGAATT against TACR1 | inactive: -0.391
35 | UAAGGUUUCUAAUCAACAATT against ZNF137 | inactive: 0.0526
36 | GCAACAACAAAAUCGCACATT against VN1R4 | inactive: -0.0601
37 | GCUGUAUAUUGGAUUAGAATT against CDC16 | inactive: 0.106
38 | CGCAUUUACGGAUAUCCUATT against CASR | inactive: 0.111
39 | CCAUCAACAUCGCCCUGAATT against PLOD1 | inactive: 0.481
40 | CCAUUAACGAGCUGCUUAATT against PLK1 | active: -2.57
41 | GCUGAUGUUUGAUAAAACUTT against MSI2 | inactive: 0.582
42 | GGAGGAUUCCAAACCGAUATT against XPNPEP3 | inactive: -0.282
43 | GCAGCAUUGUGGAUGUGGATT against LPCAT4 | inactive: 0.338
44 | CCGACUACGUCAUUCCAGCTT against P2RX5 | inactive: 0.313

Row | Sequence | median seed-adjusted z-score
45 | GGAACUUAAGCAGCCGUUATT against EVI1 | inactive: 0
46 | CUGUCUUCCUUAUAGGGUUTT against OPN1SW | inactive: 0.32
47 | GAGUCUAUGAGGACAAUAATT against SPTLC3 | inactive: 0.279
48 | CGGCGAUGCAAAAACCAAATT against RNASE2 | inactive: 0.283
49 | AGAACUUUGUGCACCGUGATT against ZAP70 | inactive: -0.674
50 | CAACAAGUGGGAAACGAUATT against CPB1 | inactive: -0.376
51 | CGAUAUGGAAAAUCCCUAUTT against ANXA10 | inactive: 0.0445
52 | CGUGCUAUUUAUCAUCACATT against UGT2B10 | inactive: 0.989
53 | GGAAGAACAUAUACUAUAATT against MAOA | inactive: 0.665
54 | CAUUAAUGGUUAGAGUUAATT against PCDHGB6 | inactive: 0.34
55 | CCUAUUCCCGAAGCCGUUATT against PLAUR | inactive: -0.118
56 | GGAUCUAUCCAGAUGAAUATT against ZNF300 | inactive: -0.302
57 | CGUAUACCCUGGUGGUUCATT against CDH1 | inactive: -0.24
58 | GGAUACUUCAGGACUAGAATT against PNN | active: 1.29
59 | CCAUCUGCUUUCCCGAGUATT against GNAZ | inactive: -0.604
60 | GAAAUGCUUUCAGAACAGATT against ZNF641 | inactive: 0.233
61 | CCAUCACCGUUGAUGACAATT against JAK1 | inactive: 0.0199
62 | GCUCAAGGCAUUCUACAAATT against SLC25A1 | inactive: 0.252
63 | GCUACACGCUGAACGAGCATT against ZNF517 | inactive: 0.0158
64 | GACUGACAUUGAGAUUACATT against CCT3 | inactive: -0.416
65 | CCGUCAGAAUUCUACAAUUTT against KCNQ3 | inactive: 0.313
66 | AGAUGAAUGUCAAGAUGCUTT against MYL4 | inactive: -0.388

Reprinted: entries 48–50
Row | Sequence | median seed-adjusted z-score
48 | CGGCGAUGCAAAAACCAAATT against RNASE2 | inactive: 0.283
49 | AGAACUUUGUGCACCGUGATT against ZAP70 | inactive: -0.674
50 | CAACAAGUGGGAAACGAUATT against CPB1 | inactive: -0.376

The list goes on:

Row | Sequence | median seed-adjusted z-score
67 | GGGCUGAUGUUAUCAACUUTT against CNTNAP2 | inactive: -0.196
68 | GCGACUUUCUUGGUUUGCATT against SNX2 | inactive: -0.569
69 | CAUGAACGGCUGUUACUCATT against ID1 | inactive: 0
70 | GCUGCGUCUCCCUUCCAAATT against GP1BB | inactive: -0.711
71 | GCCUGACCAUCUCCAUUGUTT against USH1C | inactive: -0.164
72 | GGAUCUCACCCAGUACUGATT against DMRTC2 | inactive: 0
73 | CAGAUGUGGUGAUGCGUGATT against DMBX1 | inactive: -0.207
74 | GCAUGGACGGGUAUGUUGATT against FAM12B | inactive: 0.312
75 | GAGUGUUGCGUGGAUGUAATT against DUSP5 | inactive: 0.324
76 | CAAUCAGGCUGAUAUUGCATT against PIGN | inactive: 0.215
77 | UCGACUCCCUGAGCAUUGATT against SARDH | inactive: -0.195
78 | CUGAUGAUCUACUCAUAUATT against TEKT1 | inactive: 0.222
79 | CAUCCAGCAUACAAAAGAATT against FCRL3 | inactive: -0.642
80 | GGUUGGUGAUGUCAAGUAUTT against CDKL2 | inactive: -0.293
81 | CCCGGACCUUCAUCACCAUTT against MAP2K3 | inactive: 0.365
82 | GAUGAUGCUUUGUCAGACATT against TRIB1 | inactive: 0
83 | GGAACGGGCUGGAGUUAAATT against FUBP1 | active: -1.52
84 | CGAUUACGGCUGGUACAAUTT against GPR137 | inactive: 0.564
85 | CUAUCGUAAGCUUCGAAAATT against IQGAP2 | inactive: 0.194
86 | ACAUGUCUGACAUCACCAATT against NAT8B | inactive: 0.206
87 | UUACUUCUGUGGAAUACAATT against SLC25A41 | inactive: 0.0703
88 | CCUGUGAUCCGCCCAAUUATT against RBM42 | inactive: 0

Row | Sequence | median seed-adjusted z-score
89 | UCCAGCAAGUGGCCAAGAATT against DUPD1 | inactive: -0.406
90 | CGGUGACACUACUGCAUGATT against KIF1A | inactive: 0.318
91 | GCCCUGAUCUUCUACUACUTT against P2RY1 | inactive: -0.844
92 | CGACCCUUGAAGUUCAAUATT against EFTUD2 | active: -1.25
93 | GAUCGUAUCAUAUACUCGATT against MMP7 | inactive: 0.0315
94 | GACUAUUCCUCUUUGUAUATT against BHLHB3 | inactive: -0.00972
95 | GCAAGAUUGUCAUUGACUUTT against DCTD | inactive: 0
96 | GGAGCUCAGUGUAUCGUCATT against SLIT2 | inactive: -0.592
97 | CCAACAUCGAGAACAACAATT against PARP3 | inactive: -0.0383
98 | CGGACCCAGUAUGAACUGATT against KRT77 | inactive: -0.0863
99 | GCAGGGACAUGUUCAACCATT against SPRED2 | inactive: -0.749
100 | UGAUGGAGCUGCUACCAGATT against ADPRH | inactive: -0.406
101 | GCACCUCACUCAUCAUGCATT against CYP26B1 | inactive: -0.213
102 | GGAGUGAGAUUGAUCUGUUTT against ANXA5 | inactive: 0.268
103 | GGAUUUUUGAUUUUCCGAATT against TUBAL3 | active: 1.05
104 | GGAUCUACAAAUGUCCGAATT against PROSC | inactive: 0.173
105 | GCCUAAGGCUCAUCACCAUTT against CNTNAP3 | inactive: 0.15
106 | CCAAGGUUUUAAGCGAUGATT against THADA | inactive: 0.00995
107 | CAUCAGGUAUACUAGGGAATT against ERAS | inactive: 0.289
108 | GUAAUGGAACAGCAAGUAATT against MAP2K5 | inactive: 0.986
